In publication PMC8805583, “Discovery of Herbacetin as a Novel SGK1 Inhibitor to Alleviate Myocardial Hypertrophy” (Advanced Science, 2021):
These are yes or no findings as the source states them, for the method shown. Binding seen in cells or lysates may run through a third protein. Some binding calls cover weakened binding; strength is not graded here.

Protein sequences, listed by entry. Tags and fused reporters are not part of them.
UniProt Q06226: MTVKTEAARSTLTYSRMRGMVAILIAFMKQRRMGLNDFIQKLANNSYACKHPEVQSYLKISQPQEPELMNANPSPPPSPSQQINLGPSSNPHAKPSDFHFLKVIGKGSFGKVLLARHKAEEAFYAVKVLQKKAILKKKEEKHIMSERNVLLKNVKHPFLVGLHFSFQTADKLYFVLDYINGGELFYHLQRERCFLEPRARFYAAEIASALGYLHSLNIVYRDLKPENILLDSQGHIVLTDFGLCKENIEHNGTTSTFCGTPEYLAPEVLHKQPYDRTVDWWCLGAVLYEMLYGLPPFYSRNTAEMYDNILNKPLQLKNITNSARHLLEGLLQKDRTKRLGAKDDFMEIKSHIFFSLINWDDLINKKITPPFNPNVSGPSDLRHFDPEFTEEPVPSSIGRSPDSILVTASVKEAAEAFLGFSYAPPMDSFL
UniProt G3V7R4: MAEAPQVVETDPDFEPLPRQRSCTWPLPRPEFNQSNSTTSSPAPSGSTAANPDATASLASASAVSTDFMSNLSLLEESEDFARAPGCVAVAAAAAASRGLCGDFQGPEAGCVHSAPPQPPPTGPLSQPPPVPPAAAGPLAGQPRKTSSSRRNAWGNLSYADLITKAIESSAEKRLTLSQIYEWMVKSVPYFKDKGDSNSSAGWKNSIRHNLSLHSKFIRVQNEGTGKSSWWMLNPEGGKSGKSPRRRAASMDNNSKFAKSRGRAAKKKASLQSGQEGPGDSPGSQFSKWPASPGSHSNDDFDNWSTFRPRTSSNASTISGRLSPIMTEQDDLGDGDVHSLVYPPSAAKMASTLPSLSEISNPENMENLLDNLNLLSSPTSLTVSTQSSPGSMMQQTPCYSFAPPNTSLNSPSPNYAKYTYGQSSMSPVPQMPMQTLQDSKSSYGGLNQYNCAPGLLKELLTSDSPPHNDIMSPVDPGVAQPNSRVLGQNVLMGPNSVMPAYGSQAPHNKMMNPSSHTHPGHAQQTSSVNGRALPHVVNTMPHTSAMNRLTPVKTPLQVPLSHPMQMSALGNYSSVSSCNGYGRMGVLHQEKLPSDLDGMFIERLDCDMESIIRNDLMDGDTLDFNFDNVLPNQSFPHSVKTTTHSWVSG

Molecular target: Serum/glucocorticoid regulated kinase 1 (rat (endogenous in neonatal rat cardiomyocytes)) (UniProt Q06226)
Assay: co-IP; endogenous interaction assay; neonatal rat cardiomyocytes treated with HBT or vehicle for 24 h, lysed; extracts immunoprecipitated with anti-SGK1 or anti-IgG antibody and protein A/G beads, western blot

forkhead box protein O1 (from UniProt G3V7R4 1-649)
binding: binds
